Measurements from the supplement of paper PMC12823440, “Inhibitors supercharge kinase turnover through native proteolytic circuits” (Nature, 2025).
Where a name gives a salt, the structure may show the parent alone. The list shows a part of the results. The calls rarely recur for the same compound in another form.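 Kinases, fused to nanoluciferase, were expressed in K562 cells; luminescence was measured every 4 h from 2 to 18 h as percent of control (DMSO = 100%, positive control = 0%). A time point is decreased if signal falls significantly (2 sigma). Hits were called by the authors by a rule that is not shown; the count of time points alone does not decide it.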

Protein sequences, listed by entry. Tags and fused reporters are not part of them. Lines headed by an entry give the natural chain unless they say otherwise; changes in a name come on top.
UniProt P50750, whole entry: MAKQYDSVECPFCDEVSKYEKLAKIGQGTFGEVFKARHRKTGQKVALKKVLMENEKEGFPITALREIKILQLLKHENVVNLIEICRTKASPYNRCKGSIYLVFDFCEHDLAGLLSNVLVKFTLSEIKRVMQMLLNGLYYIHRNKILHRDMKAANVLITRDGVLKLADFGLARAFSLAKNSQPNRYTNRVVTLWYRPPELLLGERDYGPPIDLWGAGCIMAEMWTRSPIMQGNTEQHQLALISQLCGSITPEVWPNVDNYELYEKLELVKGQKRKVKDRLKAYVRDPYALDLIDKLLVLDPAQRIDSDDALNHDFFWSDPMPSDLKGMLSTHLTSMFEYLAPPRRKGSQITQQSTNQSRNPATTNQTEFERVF
UniProt O96017, whole entry: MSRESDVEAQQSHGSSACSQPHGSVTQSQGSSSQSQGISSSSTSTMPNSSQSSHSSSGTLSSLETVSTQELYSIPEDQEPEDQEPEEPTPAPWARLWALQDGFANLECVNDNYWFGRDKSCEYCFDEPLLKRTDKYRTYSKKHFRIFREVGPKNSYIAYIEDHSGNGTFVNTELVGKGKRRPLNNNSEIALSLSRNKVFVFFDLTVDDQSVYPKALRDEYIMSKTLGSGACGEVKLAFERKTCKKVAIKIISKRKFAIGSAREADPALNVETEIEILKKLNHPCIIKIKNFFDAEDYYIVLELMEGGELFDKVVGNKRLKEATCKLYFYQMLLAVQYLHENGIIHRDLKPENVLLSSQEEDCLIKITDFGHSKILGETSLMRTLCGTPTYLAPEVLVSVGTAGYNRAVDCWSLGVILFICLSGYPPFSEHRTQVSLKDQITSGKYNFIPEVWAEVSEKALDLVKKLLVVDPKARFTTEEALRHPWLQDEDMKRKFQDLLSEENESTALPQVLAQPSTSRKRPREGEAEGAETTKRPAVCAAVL
UniProt P07333, whole entry: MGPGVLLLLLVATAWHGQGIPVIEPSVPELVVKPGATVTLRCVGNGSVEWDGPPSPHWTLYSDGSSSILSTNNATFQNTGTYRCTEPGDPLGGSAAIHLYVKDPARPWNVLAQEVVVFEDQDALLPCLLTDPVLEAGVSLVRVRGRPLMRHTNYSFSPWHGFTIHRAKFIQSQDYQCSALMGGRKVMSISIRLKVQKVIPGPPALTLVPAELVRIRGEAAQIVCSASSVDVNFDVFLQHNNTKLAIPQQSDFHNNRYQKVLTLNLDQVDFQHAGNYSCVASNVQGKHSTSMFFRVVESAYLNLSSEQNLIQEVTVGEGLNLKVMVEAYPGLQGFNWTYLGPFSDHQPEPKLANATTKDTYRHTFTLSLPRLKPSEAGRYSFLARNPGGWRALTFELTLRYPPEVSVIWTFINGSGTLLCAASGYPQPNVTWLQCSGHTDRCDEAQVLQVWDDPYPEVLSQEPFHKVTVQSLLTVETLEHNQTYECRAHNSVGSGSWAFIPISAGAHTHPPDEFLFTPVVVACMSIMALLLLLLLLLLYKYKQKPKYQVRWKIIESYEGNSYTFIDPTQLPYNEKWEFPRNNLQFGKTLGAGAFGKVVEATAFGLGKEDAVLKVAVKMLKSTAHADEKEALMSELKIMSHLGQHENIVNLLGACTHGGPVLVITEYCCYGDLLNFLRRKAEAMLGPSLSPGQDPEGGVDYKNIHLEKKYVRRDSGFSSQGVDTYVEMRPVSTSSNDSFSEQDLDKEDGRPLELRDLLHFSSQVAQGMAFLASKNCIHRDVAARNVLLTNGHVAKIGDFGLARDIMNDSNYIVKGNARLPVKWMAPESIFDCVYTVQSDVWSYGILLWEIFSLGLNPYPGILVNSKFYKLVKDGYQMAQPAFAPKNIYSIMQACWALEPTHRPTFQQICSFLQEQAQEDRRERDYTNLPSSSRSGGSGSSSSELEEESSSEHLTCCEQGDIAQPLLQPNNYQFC
UniProt P41240: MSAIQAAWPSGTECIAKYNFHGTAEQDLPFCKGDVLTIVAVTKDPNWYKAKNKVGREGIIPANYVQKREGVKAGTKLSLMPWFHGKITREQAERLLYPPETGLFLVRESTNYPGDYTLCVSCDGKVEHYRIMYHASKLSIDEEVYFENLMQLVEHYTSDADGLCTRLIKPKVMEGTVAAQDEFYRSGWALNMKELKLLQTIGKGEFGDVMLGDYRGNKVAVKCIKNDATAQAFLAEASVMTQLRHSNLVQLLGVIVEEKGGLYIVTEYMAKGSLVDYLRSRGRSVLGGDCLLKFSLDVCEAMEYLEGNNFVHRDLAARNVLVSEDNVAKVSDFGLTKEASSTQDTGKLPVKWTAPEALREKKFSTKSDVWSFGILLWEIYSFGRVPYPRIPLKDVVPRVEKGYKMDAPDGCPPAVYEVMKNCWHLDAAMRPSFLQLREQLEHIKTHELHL
UniProt P48729: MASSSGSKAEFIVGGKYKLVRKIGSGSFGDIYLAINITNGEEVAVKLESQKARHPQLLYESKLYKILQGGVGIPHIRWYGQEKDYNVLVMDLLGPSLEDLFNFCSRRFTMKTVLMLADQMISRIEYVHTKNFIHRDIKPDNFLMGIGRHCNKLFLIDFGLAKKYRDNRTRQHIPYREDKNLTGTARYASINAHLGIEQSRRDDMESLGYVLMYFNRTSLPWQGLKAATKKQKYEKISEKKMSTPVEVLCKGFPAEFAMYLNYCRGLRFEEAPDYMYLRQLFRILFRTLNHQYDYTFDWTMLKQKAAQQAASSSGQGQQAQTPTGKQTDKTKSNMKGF
UniProt P48730: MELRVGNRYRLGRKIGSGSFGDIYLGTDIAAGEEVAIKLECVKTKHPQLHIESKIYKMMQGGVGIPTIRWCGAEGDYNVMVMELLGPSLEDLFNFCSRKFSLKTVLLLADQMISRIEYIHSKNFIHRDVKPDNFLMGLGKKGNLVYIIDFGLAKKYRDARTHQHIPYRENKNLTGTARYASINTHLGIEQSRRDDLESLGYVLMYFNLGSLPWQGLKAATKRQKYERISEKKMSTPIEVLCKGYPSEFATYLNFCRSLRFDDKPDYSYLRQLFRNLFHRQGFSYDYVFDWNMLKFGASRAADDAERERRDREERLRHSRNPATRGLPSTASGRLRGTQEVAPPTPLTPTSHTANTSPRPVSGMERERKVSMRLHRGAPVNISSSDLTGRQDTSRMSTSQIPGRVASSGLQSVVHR
UniProt Q08345: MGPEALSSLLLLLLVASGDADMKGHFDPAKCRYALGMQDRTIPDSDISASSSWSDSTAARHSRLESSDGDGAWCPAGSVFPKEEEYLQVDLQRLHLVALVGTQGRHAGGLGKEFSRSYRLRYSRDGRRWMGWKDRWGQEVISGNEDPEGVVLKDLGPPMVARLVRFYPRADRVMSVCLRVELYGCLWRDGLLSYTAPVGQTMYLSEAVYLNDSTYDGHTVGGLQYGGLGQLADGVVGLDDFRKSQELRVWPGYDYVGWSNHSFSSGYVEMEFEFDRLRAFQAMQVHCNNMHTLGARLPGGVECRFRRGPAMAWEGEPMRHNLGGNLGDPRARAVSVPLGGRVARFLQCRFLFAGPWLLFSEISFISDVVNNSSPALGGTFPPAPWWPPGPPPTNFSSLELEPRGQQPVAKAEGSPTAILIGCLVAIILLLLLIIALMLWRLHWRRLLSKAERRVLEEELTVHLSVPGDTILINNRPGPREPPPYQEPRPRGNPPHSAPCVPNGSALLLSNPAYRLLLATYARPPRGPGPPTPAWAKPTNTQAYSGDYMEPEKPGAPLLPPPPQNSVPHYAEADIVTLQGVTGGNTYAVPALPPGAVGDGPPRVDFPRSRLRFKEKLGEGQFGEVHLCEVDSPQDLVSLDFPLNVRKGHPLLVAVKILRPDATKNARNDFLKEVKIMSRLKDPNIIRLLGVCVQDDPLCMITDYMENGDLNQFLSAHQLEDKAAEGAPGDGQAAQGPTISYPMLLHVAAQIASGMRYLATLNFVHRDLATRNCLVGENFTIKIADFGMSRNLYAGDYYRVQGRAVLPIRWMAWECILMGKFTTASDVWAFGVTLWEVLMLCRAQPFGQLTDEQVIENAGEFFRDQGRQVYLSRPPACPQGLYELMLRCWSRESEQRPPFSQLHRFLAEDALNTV
UniProt Q9Y463, whole entry, looked up: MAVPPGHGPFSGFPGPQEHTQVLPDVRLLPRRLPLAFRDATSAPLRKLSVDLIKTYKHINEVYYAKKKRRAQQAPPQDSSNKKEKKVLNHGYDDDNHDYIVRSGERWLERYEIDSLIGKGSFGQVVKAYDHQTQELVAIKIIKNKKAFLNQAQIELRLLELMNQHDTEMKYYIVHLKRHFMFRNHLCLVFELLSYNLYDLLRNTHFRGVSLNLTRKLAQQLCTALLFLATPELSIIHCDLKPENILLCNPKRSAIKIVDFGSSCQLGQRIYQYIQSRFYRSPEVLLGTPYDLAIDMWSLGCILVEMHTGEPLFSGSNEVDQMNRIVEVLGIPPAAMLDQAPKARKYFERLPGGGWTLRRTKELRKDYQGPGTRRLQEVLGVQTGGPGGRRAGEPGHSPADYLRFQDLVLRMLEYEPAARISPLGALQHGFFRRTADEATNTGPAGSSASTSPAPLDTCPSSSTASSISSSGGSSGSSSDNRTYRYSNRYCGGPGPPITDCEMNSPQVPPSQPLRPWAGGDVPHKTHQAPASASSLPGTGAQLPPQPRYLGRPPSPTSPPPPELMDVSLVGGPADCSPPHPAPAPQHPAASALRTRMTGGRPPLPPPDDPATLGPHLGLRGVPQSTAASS
UniProt Q92630: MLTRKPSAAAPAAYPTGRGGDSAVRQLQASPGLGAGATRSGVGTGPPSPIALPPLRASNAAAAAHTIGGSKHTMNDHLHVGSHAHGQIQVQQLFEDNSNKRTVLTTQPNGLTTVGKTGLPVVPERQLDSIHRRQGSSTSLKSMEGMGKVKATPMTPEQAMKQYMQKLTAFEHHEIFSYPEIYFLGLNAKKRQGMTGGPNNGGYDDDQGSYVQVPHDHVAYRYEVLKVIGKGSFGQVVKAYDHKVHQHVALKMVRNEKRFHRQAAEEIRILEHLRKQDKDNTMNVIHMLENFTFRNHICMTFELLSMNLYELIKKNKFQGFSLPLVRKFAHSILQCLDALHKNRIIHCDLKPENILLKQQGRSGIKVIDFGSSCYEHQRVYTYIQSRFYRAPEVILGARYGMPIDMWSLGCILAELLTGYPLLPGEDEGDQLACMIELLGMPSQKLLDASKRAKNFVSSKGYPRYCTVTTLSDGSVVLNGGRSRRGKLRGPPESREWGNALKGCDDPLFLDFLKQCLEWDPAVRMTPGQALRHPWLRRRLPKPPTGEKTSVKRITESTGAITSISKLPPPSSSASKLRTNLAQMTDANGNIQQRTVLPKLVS
UniProt Q15303, whole entry R711C: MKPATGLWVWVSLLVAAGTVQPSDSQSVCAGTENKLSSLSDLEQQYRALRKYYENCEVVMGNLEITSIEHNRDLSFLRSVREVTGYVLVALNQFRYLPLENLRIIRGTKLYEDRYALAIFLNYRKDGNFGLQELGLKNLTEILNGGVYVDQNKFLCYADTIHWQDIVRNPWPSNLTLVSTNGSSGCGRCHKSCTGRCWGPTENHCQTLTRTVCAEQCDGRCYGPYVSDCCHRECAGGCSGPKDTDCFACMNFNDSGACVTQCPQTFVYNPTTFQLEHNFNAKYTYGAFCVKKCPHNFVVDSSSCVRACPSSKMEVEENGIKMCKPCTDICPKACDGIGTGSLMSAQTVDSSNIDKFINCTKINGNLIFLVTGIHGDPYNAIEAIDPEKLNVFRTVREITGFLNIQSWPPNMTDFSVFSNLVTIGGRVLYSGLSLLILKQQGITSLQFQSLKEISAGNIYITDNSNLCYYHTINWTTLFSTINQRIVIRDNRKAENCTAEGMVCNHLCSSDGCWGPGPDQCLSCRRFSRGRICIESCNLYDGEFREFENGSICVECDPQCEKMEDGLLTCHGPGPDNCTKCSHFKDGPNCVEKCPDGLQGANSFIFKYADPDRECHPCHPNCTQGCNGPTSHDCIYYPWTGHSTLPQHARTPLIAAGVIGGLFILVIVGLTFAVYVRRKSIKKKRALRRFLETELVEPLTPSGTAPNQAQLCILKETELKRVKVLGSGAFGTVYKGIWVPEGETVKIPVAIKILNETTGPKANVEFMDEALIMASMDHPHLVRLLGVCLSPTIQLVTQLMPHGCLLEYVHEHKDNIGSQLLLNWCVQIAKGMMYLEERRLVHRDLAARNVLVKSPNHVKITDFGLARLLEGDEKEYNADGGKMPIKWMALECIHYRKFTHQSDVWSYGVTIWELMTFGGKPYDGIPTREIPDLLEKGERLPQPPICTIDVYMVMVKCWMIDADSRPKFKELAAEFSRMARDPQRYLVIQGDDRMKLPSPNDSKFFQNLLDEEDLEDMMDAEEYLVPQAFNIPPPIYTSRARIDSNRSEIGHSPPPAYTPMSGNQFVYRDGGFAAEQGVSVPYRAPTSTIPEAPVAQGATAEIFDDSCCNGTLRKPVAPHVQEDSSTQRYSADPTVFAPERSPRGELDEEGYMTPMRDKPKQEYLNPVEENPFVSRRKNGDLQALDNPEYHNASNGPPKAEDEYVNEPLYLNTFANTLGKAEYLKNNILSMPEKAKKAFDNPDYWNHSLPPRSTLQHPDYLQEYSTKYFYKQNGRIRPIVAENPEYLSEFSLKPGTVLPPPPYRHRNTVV

Experiments:
Assay in all cases: kinase-Nluc reporter destabilization hit call (1 = scored as downregulated) (binary); higher = compound decreases kinase abundance
Details in all cases: K562; 2-18 h
CDK7 = CDK7 (UniProt P50613)
CDK9 = CDK9 (UniProt P50750)
CHEK2 = CHEK2 (UniProt O96017)
CSF1R = CSF1R (UniProt P07333)
CSK = CSK (UniProt P41240)
CSNK1A1 = CSNK1A1 (UniProt P48729)
CSNK1D = CSNK1D (UniProt P48730)
DDR1 = DDR1 (UniProt Q08345)
DYRK1B = DYRK1B (UniProt Q9Y463)
DYRK2 = DYRK2 (UniProt Q92630)
EGFR = EGFR (UniProt P00533)
EGFR_G719S = EGFR_G719S (UniProt P00533)
EGFR_G719S_T790M = EGFR_G719S_T790M (UniProt P00533)
EGFR_L718V = EGFR_L718V (UniProt P00533)
EGFR_L858R = EGFR_L858R (UniProt P00533)
EGFR_L861Q = EGFR_L861Q (UniProt P00533)
EGFR_T790M = EGFR_T790M (UniProt P00533)
EPHA2 = EPHA2 (UniProt P29317)
ERBB3 = ERBB3 (UniProt P21860)
[1] = target: ERBB4_R711C (clone: ERBB4_mut) (UniProt Q15303)

Measured: kinase-Nluc reporter destabilization hit call

C[C@@H]1COCCN1c1cc(C2([S@@](C)(=N)=O)CC2)nc(-c2ccnc3[nH]ccc23)n1 [(S)-Ceralasertib] (10 µM)
inactive: CDK7 = 0 | CDK9 = 0 | CHEK2 = 0 | CSF1R 0 | CSK 0 | CSNK1A1 = 0 | CSNK1D 0 | DDR1 = 0 | DYRK1B 0 | DYRK2 = 0 | EGFR 0 | EGFR_G719S 0 | EGFR_G719S_T790M 0 | EGFR_L718V 0 | EGFR_L858R 0 | EGFR_L861Q 0 | EGFR_T790M 0 | EPHA2 = 0 | ERBB3 = 0 | [1] 0

Cc1ccc(C(=O)Nc2ccc(Oc3cc4cnn(C)c4cc3-c3cn[nH]c3)c(F)c2)c(=O)n1-c1ccc(F)cc1 [Merestinib] (2.5 µM)
inactive: CDK7 = 0 | CDK9 = 0 | CHEK2 = 0 | CSF1R 0 | CSK 0 | CSNK1A1 = 0 | CSNK1D 0 | DDR1 = 0 | DYRK1B 0 | DYRK2 = 0 | EGFR 0 | EGFR_G719S 0 | EGFR_G719S_T790M 0 | EGFR_L718V 0 | EGFR_L858R 0 | EGFR_L861Q 0 | EGFR_T790M 0 | EPHA2 = 0 | ERBB3 = 0 | [1] 0

Oc1cc2c(cc1O)C(Cc1cccc3ccccc13)NCC2 (stereo not given) (10 µM)
inactive: CDK7 = 0 | CDK9 = 0 | CHEK2 = 0 | CSF1R 0 | CSK 0 | CSNK1A1 = 0 | CSNK1D 0 | DDR1 = 0 | DYRK1B 0 | DYRK2 = 0 | EGFR 0 | EGFR_G719S 0 | EGFR_G719S_T790M 0 | EGFR_L718V 0 | EGFR_L858R 0 | EGFR_L861Q 0 | EGFR_T790M 0 | EPHA2 = 0 | ERBB3 = 0 | [1] 0

OCCn1cc(-c2ccc3c(c2)CC/C3=N\O)c(-c2ccncc2)n1 (10 µM)
inactive: CDK7 = 0 | CDK9 = 0 | CHEK2 = 0 | CSF1R 0 | CSK 0 | CSNK1A1 = 0 | CSNK1D 0 | DDR1 = 0 | DYRK1B 0 | DYRK2 = 0 | EGFR 0 | EGFR_G719S 0 | EGFR_G719S_T790M 0 | EGFR_L718V 0 | EGFR_L858R 0 | EGFR_L861Q 0 | EGFR_T790M 0 | EPHA2 = 0 | ERBB3 = 0 | [1] 0

CCN1CCC(n2cc(CNc3cc(Cl)c4ncc(C#N)c(Nc5ccc(F)c(Cl)c5)c4c3)nn2)CC1 [Cot inhibitor-2] (2.5 µM)
inactive: CDK7 = 0 | CDK9 = 0 | CHEK2 = 0 | CSF1R 0 | CSK 0 | CSNK1A1 = 0 | CSNK1D 0 | DDR1 = 0 | DYRK1B 0 | DYRK2 = 0 | EGFR 0 | EGFR_G719S 0 | EGFR_G719S_T790M 0 | EGFR_L718V 0 | EGFR_L858R 0 | EGFR_L861Q 0 | EGFR_T790M 0 | EPHA2 = 0 | ERBB3 = 0 | [1] 0

C=CC(=O)Nc1cccc(Nc2nc(Nc3ccc(N4CCN(C(C)=O)CC4)cc3OC)ncc2C(F)(F)F)c1 [Rociletinib hydrobromide] (10 µM)
inactive: CDK7 = 0 | CDK9 = 0 | CHEK2 = 0 | CSF1R 0 | CSK 0 | CSNK1A1 = 0 | CSNK1D 0 | DDR1 = 0 | DYRK1B 0 | DYRK2 = 0 | EGFR 0 | EGFR_G719S 0 | EGFR_G719S_T790M 0 | EGFR_L718V 0 | EGFR_L858R 0 | EGFR_L861Q 0 | EGFR_T790M 0 | EPHA2 = 0 | ERBB3 = 0 | [1] 0

C[C@@]1(c2ncncc2F)NC(=O)c2cc(-c3cn[nH]c3)ccc21 (10 µM)
inactive: CDK7 = 0 | CDK9 = 0 | CHEK2 = 0 | CSF1R 0 | CSK 0 | CSNK1A1 = 0 | CSNK1D 0 | DDR1 = 0 | DYRK1B 0 | DYRK2 = 0 | EGFR 0 | EGFR_G719S 0 | EGFR_G719S_T790M 0 | EGFR_L718V 0 | EGFR_L858R 0 | EGFR_L861Q 0 | EGFR_T790M 0 | EPHA2 = 0 | ERBB3 = 0 | [1] 0

C[C@]1(O)CCN(c2nc(N3C[C@H](O)[C@@H](O)C3)cc(C(F)(F)F)c2C#N)C1 (10 µM)
inactive: CDK7 = 0 | CDK9 = 0 | CHEK2 = 0 | CSF1R 0 | CSK 0 | CSNK1A1 = 0 | CSNK1D 0 | DDR1 = 0 | DYRK1B 0 | DYRK2 = 0 | EGFR 0 | EGFR_G719S 0 | EGFR_G719S_T790M 0 | EGFR_L718V 0 | EGFR_L858R 0 | EGFR_L861Q 0 | EGFR_T790M 0 | EPHA2 = 0 | ERBB3 = 0 | [1] 0

COc1cc(/C=C/C(=O)NCC(O)c2ccc(O)cc2)ccc1O (stereo not given) [N-Feruloyloctopamine] (2.5 µM)
inactive: CDK7 = 0 | CDK9 = 0 | CHEK2 = 0 | CSF1R 0 | CSK 0 | CSNK1A1 = 0 | CSNK1D 0 | DDR1 = 0 | DYRK1B 0 | DYRK2 = 0 | EGFR 0 | EGFR_G719S 0 | EGFR_G719S_T790M 0 | EGFR_L718V 0 | EGFR_L858R 0 | EGFR_L861Q 0 | EGFR_T790M 0 | EPHA2 = 0 | ERBB3 = 0 | [1] 0

C=CC(=O)Nc1cc(C)ccc1Nc1nc(Nc2cc(OC)ncc2C)ncc1C(F)(F)F (10 µM)
inactive: CDK7 = 0 | CDK9 = 0 | CHEK2 = 0 | CSF1R 0 | CSK 0 | CSNK1A1 = 0 | CSNK1D 0 | DDR1 = 0 | DYRK1B 0 | DYRK2 = 0 | EGFR 0 | EGFR_G719S 0 | EGFR_G719S_T790M 0 | EGFR_L718V 0 | EGFR_L858R 0 | EGFR_L861Q 0 | EGFR_T790M 0 | EPHA2 = 0 | ERBB3 = 0 | [1] 0

CCNc1nc(Nc2cc(F)c(C(=O)N3CCOCC3)cc2OC)ncc1C(F)(F)F [GNE-7915 (tosylate)] (10 µM)
inactive: CDK7 = 0 | CDK9 = 0 | CHEK2 = 0 | CSF1R 0 | CSK 0 | CSNK1A1 = 0 | CSNK1D 0 | DDR1 = 0 | DYRK1B 0 | DYRK2 = 0 | EGFR 0 | EGFR_G719S 0 | EGFR_G719S_T790M 0 | EGFR_L718V 0 | EGFR_L858R 0 | EGFR_L861Q 0 | EGFR_T790M 0 | EPHA2 = 0 | ERBB3 = 0 | [1] 0

Pulled by structure from the list above (two):
CCNc1nc(Nc2cc(F)c(C(=O)N3CCOCC3)cc2OC)ncc1C(F)(F)F [GNE-7915 (tosylate)] (10 µM)
inactive: CDK7 = 0 | CDK9 = 0 | CHEK2 = 0 | CSF1R 0 | CSK 0 | CSNK1A1 = 0 | CSNK1D 0 | DDR1 = 0 | DYRK1B 0 | DYRK2 = 0 | EGFR 0 | EGFR_G719S 0 | EGFR_G719S_T790M 0 | EGFR_L718V 0 | EGFR_L858R 0 | EGFR_L861Q 0 | EGFR_T790M 0 | EPHA2 = 0 | ERBB3 = 0 | [1] 0

C=CC(=O)Nc1cccc(Nc2nc(Nc3ccc(N4CCN(C(C)=O)CC4)cc3OC)ncc2C(F)(F)F)c1 [Rociletinib hydrobromide] (10 µM)
inactive: CDK7 = 0 | CDK9 = 0 | CHEK2 = 0 | CSF1R 0 | CSK 0 | CSNK1A1 = 0 | CSNK1D 0 | DDR1 = 0 | DYRK1B 0 | DYRK2 = 0 | EGFR 0 | EGFR_G719S 0 | EGFR_G719S_T790M 0 | EGFR_L718V 0 | EGFR_L858R 0 | EGFR_L861Q 0 | EGFR_T790M 0 | EPHA2 = 0 | ERBB3 = 0 | [1] 0

Continued.

COc1cccc(OC)c1C(=O)OCc1cc(O)ccc1O[C@@H]1O[C@H](CO)[C@@H](O)[C@H](O)[C@H]1O [Curculigoside] (10 µM)
inactive: CDK7 = 0 | CDK9 = 0 | CHEK2 = 0 | CSF1R 0 | CSK 0 | CSNK1A1 = 0 | CSNK1D 0 | DDR1 = 0 | DYRK1B 0 | DYRK2 = 0 | EGFR 0 | EGFR_G719S 0 | EGFR_G719S_T790M 0 | EGFR_L718V 0 | EGFR_L858R 0 | EGFR_L861Q 0 | EGFR_T790M 0 | EPHA2 = 0 | ERBB3 = 0 | [1] 0

C[C@@H]1CC[C@@H](Nc2nc(NC(C)(C)C)ncc2C(N)=O)C[C@H]1O (10 µM)
inactive: CDK7 = 0 | CDK9 = 0 | CHEK2 = 0 | CSF1R 0 | CSK 0 | CSNK1A1 = 0 | CSNK1D 0 | DDR1 = 0 | DYRK1B 0 | DYRK2 = 0 | EGFR 0 | EGFR_G719S 0 | EGFR_G719S_T790M 0 | EGFR_L718V 0 | EGFR_L858R 0 | EGFR_L861Q 0 | EGFR_T790M 0 | EPHA2 = 0 | ERBB3 = 0 | [1] 0

O=C(NOCC(O)CO)c1cc(Br)c(F)c(F)c1Nc1ccc(I)cc1F (stereo not given) (2.5 µM)
inactive: CDK7 = 0 | CDK9 = 0 | CHEK2 = 0 | CSF1R 0 | CSK 0 | CSNK1A1 = 0 | CSNK1D 0 | DDR1 = 0 | DYRK1B 0 | DYRK2 = 0 | EGFR 0 | EGFR_G719S 0 | EGFR_G719S_T790M 0 | EGFR_L718V 0 | EGFR_L858R 0 | EGFR_L861Q 0 | EGFR_T790M 0 | EPHA2 = 0 | ERBB3 = 0 | [1] 0

Cc1cc(CN2CCN(c3c(Br)cnc4nc(-c5ccc(N6CCN(C)CC6)cc5)[nH]c34)CC2)no1 (2.5 µM)
inactive: CDK7 = 0 | CDK9 = 0 | CHEK2 = 0 | CSF1R 0 | CSK 0 | CSNK1A1 = 0 | CSNK1D 0 | DDR1 = 0 | DYRK1B 0 | DYRK2 = 0 | EGFR 0 | EGFR_G719S 0 | EGFR_G719S_T790M 0 | EGFR_L718V 0 | EGFR_L858R 0 | EGFR_L861Q 0 | EGFR_T790M 0 | EPHA2 = 0 | ERBB3 = 0 | [1] 0

CN1CCC(c2cc(-c3ccncc3)c(-c3ccc(F)cc3)[nH]2)CC1 (10 µM)
inactive: CDK7 = 0 | CDK9 = 0 | CHEK2 = 0 | CSF1R 0 | CSK 0 | CSNK1A1 = 0 | CSNK1D 0 | DDR1 = 0 | DYRK1B 0 | DYRK2 = 0 | EGFR 0 | EGFR_G719S 0 | EGFR_G719S_T790M 0 | EGFR_L718V 0 | EGFR_L858R 0 | EGFR_L861Q 0 | EGFR_T790M 0 | EPHA2 = 0 | ERBB3 = 0 | [1] 0

Nc1nc(F)nc2c1ncn2[C@@H]1O[C@H](CO)[C@@H](O)[C@@H]1O [Fludarabine] (10 µM)
inactive: CDK7 = 0 | CDK9 = 0 | CHEK2 = 0 | CSF1R 0 | CSK 0 | CSNK1A1 = 0 | CSNK1D 0 | DDR1 = 0 | DYRK1B 0 | DYRK2 = 0 | EGFR 0 | EGFR_G719S 0 | EGFR_G719S_T790M 0 | EGFR_L718V 0 | EGFR_L858R 0 | EGFR_L861Q 0 | EGFR_T790M 0 | EPHA2 = 0 | ERBB3 = 0 | [1] 0
